In all, about 360,000 compounds went through this assay and about 7,500 (2.1%) were called active. This list was built around the results that the source calls inconclusive (neither active nor inactive); the mix of calls is not that of the screen. The call rests on the fitted dose curve; in most records, active means well fitted inhibition curve with a large enough effect; inconclusive means small, poorly fitted or top-dose-only effect, or effect the other way; inactive means flat fitted curve, though single readings scatter. Potencies beside an inconclusive call are fits to weak or partial responses and may not hold up.
Assay: Nrf2 qHTS screen for inhibitors; further: nearly all actives have a fitted effect of over 60% in size
Settings: A549 ARE-Fluc reporter, luciferase luminescence, 18-24 h; activity change, negative = inhibition: at 46 µM (top of the series)
In short: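 A549 ARE_Fluc cells, 5000/well, 5% FBS OPTI-MEM; compounds in dose-response, 18-24 h at 37 °C/5% CO2; CellTiter-Fluor viability read (Ex 405/Em 525), then BugLite luciferase luminescence = Nrf2 activity.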
With Cc1ccc(CNc2cc(-c3nn4c(C)nnc4s3)ccc2C)s1 the Potency was active: 16.4 µM. With COc1ccccc1C(=O)NCC(=O)N1CC=C(c2ccccc2)CC1 the Potency was inconclusive: 13 µM [falling, partial curve]. In the case of COc1ccccc1NC(=O)COC(=O)/C=C/c1ccc2c(c1)OCO2, the Potency is reported as inconclusive: 7.31 µM [activator, partial curve, poor fit]. With O=C(NCc1ccccn1)C1(C(F)(F)F)CC(CCCO)CCCO1 (centres undefined) the “activity change, negative = inhibition” value was inactive: 19.9%. In the case of COc1ccc(C(=O)/C=C2\Sc3ccccc3N2C)cc1, the Potency is reported as inconclusive: 0.731 µM [activator, full curve]. With Cc1cc(C)c(/C([O-])=C(/C(=S)Nc2ccc(SC(F)F)cc2)[n+]2ccccc2)cc1C the “activity change, negative = inhibition” value was inactive: -6.93%. With COc1ccccc1CNc1ccc2c(c1)CCC2 the Potency was inconclusive: 2.31 µM [activator, full curve, poor fit]. For O=C(Nc1cccnc1)Nc1ccccn1, the Potency was inconclusive: 29.1 µM [falling, single point]. In the case of CCn1c(=O)n(-c2ccc(C)c(F)c2)c(=O)c2sc3ccccc3c21, the “activity change, negative = inhibition” value is reported as inactive: -8.91%. In the case of Cc1csc2c(C#N)c(=O)c3c(n12)CCC3, the Potency is reported as inconclusive: 10.3 µM [falling, partial curve]. With N=c1c2c(-c3ccccc3)c(-c3ccccc3)n(Cc3ccco3)c2ncn1CCCO the Potency was inconclusive: 25.9 µM [falling, single point]. For CCCCCOc1ccc(N2C(=O)CC(N(O)c3ccccc3)C2=O)cc1 (centres undefined), the Potency was inconclusive: 25.9 µM [falling, partial curve, poor fit]. For CCOC(=O)C1(Cc2cccc(F)c2)CCN(Cc2c(C)nn(CC)c2C)CC1, the Potency was inconclusive: 14.6 µM [falling, partial curve]. With CC1=C(C(=O)OCCC(C)C)C(c2ccc3c(c2)OCO3)NC(=O)N1 (centres undefined) the Potency was inconclusive: 18.4 µM [falling, partial curve]. For CCOc1ccccc1C(=O)Nc1nnc(Cc2ccc(OC)c(OC)c2)s1, the Potency was inconclusive: 8.2 µM [falling, partial curve]. In the case of CCOC(=O)c1oc2ccc(S(=O)(=O)n3nc(-c4ccccc4OC)cc3N)cc2c1C, the Potency is reported as inconclusive: 29.1 µM [falling, single point]. With O=C(Nc1cccc2nsnc12)c1ccc2c(c1)OCO2 the Potency was inconclusive: 13 µM [activator, partial curve, poor fit]. In the case of O=C(COC(=O)c1cc(-c2cccs2)nc2ccccc12)c1ccccc1, the Potency is reported as inconclusive: 25.9 µM [activator, single point]. In the case of Cc1cc(=O)n2[nH]c(-c3sccc3-n3c(C)ccc3C)cc2n1, the Potency is reported as inconclusive: 0.58 µM [activator, full curve, poor fit].

Reference: PubChem BioAssay AID504444 (National Center for Advancing Translational Sciences (NCATS), 2011)
On the % scale 0 is the no-effect control and ±100 the full control effect; potency means the concentration at half of the fitted maximal effect.
